What was measured:
[1] = peptide synthesis; settings: cyclisation step
[2] = general procedure: peptide synthesis; chemically modified PEGA resin; EDC/HOAt (cyclisation); settings: cyclisation step

Substance | cyclisation yield [1] | cyclisation yield [2]
M F L N V SGW | 73% | –
R Y F N V C | – | 64%
